{"source": "patent US20260076988A1", "about": "(The Cleveland Clinic Foundation, priority 2019, published 2026)", "test_system": "NCI60 panel of cancer cell lines", "test": "Correlation of GI50 with pyrimidine metabolism enzyme expression and doubling time, NCI60 panel", "format": "cell-based", "note": "Some results come without the dose or concentration used.", "data": [{"smiles": "Nc1ncn([C@@H]2O[C@H](CO)[C@@H](O)[C@H]2O)c(=O)n1", "note": "[5-azacytidine]", "values": [{"measurement": "correlation coefficient r, growth inhibition vs cell doubling-time", "value": 0.29}]}]}
